Source: paper PMC11633486, “The Intestinal Transporter SLC30A1 Plays a Critical Role in Regulating Systemic Zinc Homeostasis” (Advanced Science, 2024)
These are yes or no findings as the source states them, for the method shown. Some entries that bind do so weakly or less than the wild type.

Biological target: WT SLC30A1 expressed in cells (lysate for non-reducing SDS-PAGE) (human) (UniProt Q9Y6M5)
Assay: non-reducing SDS-PAGE with Western blot; lysates of cells expressing EV, WT SLC30A1 or mutants, separated by non-reducing SDS-PAGE

binding: binds
B1: full-length human SLC30A1 protein (natural protein, UniProt Q9Y6M5 1-507, looked up)
chain: MGCWGRNRGRLLCMLALTFMFMVLEVVVSRVTSSLAMLSDSFHMLSDVLALVVALVAERFARRTHATQKNTFGWIRAEVMGALVNAIFLTGLCFAILLEAIERFIEPHEMQQPLVVLGVGVAGLLVNVLGLCLFHHHSGFSQDSGHGHSHGGHGHGHGLPKGPRVKSTRPGSSDINVAPGEQGPDQEETNTLVANTSNSNGLKLDPADPENPRSGDTVEVQVNGNLVREPDHMELEEDRAGQLNMRGVFLHVLGDALGSVIVVVNALVFYFSWKGCSEGDFCVNPCFPDPCKAFVEIINSTHASVYEAGPCWVLYLDPTLCVVMVCILLYTTYPLLKESALILLQTVPKQIDIRNLIKELRNVEGVEEVHELHVWQLAGSRIIATAHIKCEDPTSYMEVAKTIKDVFHNHGIHATTIQPEFASVGSKSSVVPCELACRTQCALKQCCGTLPQAPSGKDAEKTPAVSISCLELSNNLEKKPRRTKAENIPAVVIEIKNMPNKQPESSL
notes: SLC30A1 (zinc transporter 1), human, full-length cDNA with codon optimization; Homodimer in the cryo-EM structure; the C291 residues of the two protomers form a disulfide bond; also called WT SLC30A1; wild-type SLC30A1; source: HEK293F, transfected (pEZT vector), purified (Strep-Tactin beads, Superose 6 gel filtration) in LMNG/CHS
